# Patent publication US20200255884A1, “METHOD OF DETECTION OF DNA END(S) AND ITS USE” (INTODNA SP. Z O.O., priority 2017, published 2020)
# For at least one compound, name, drawing or mass did not settle the structure.
# Legend:
# [1] = tested on: HeLa 21-4 cells; assay: Detection of DNA breaks induced by photodynamic effect in HeLa cells, standard TUNEL assay; assay type: cell-based; conditions: ethidium bromide, 488 nm laser 9 mJ
# [2] = tested on: HeLa 21-4 cells; assay: Detection of DNA breaks induced by photodynamic effect (ethidium bromide + 488 nm laser) in HeLa cells, Procedure 1; assay type: cell-based; conditions: 488 nm laser 9 mJ
# Protocol: In this experiment the DNA breaks were induced by treating live cells (HeLa 21-4 cells, obtained from prof. P.R. Cook, Oxford University) with ethidium bromide (500 μM) for 10 min and then parking the laser beam (488 nm) at a chosen place inside the nucleus (dose: 9 mJ) 2 minutes after illumination step 2 of Procedure 1 was performed. The aim of the experiment was to directly detect DNA break (s) inflicted at a specific area of the cell nucleus by a photodynamic effect.
# HeLa 21-4 cells were first seeded on 18-mm coverslips and cultured for 3 days in DMEM supplemented with 10% FBS. After culturing, DNA damage was induced in chosen cells, as described previously, followed by incubation in 70% ethanol in water, 15 h, −20° C. After that, increasing of accessibility of DNA ends (step 4) was performed with 10 mM EDTA in water, 1 h, RT. Incorporation of modified (BrdUTP) nucleotides (Phoenix Flow Systems) by terminal deoxynucleotidyl transferase was performed according to the kit supplier's instructions (APO-BRDU kit, Phoenix Flow Systems). The cells were then incubated with 1% BSA solution in PBS (overnight in 4° C.). The incubation with primary antibodies type 1 and 2 according to step 7 of Procedure 2 were performed using mouse monoclonal anti-BrdU (Abcam, ab8039) and rabbit polyclonal anti-BrdU (Abcam, ab152095) (1:100 in 1% BSA), respectively. […]
compound,measurement,setting,value
CC[n+]1c(-c2ccccc2)c2cc(N)ccc2c2ccc(N)cc21 [ethidium bromide],focus at the illuminated place,[1],no focus was visible
same,focus at the illuminated place,[2],clearly visible
